Values from PubChem BioAssay AID1508597 (Cure First, 2020).
This is a random part of about 2,100 deposited reagents. 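Calls flag viability under 80% in either arm, not effects specific to rucaparib; the reference for percent is not stated.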 Not given: the 100% reference.

Aim: 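Survival screen with siRNA in ovarian cancer cells derived from patients, with or without rucaparib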 (primary screen)
Cells: human ovarian carcinoma lines grown from tumours: OCI-P5x (papillary serous) and OCI-C5x (clear cell)
Reagents: siRNA pool against human genes, 1.25 pmol siRNA per well
Duration: 72 h or 96 h, depending on the cell culture
Treatment: rucaparib 20 µM (about IC30) or vehicle, present until read-out
Measured: 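Luminescent ATP-based viability assay read 72 or 96 h after transfection, depending on culture, given as normalised percent viability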
Scale: viability, normalised: higher = more viable cells remaining
Hit rule: 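a well counts as a hit if its normalised viability is under 80 percent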
Meaning of the calls: active = viability under 80%; inactive = viability 80% or more

Target gene	rucaparib or vehicle	cell line	technical replicate	viability, normalised (%)	Outcome
GAD1	Rucaparib	OCI-C5x (clear cell)	1	48.5	active
GAD1	Rucaparib	OCI-C5x (clear cell)	2	38.8	active
GAD1	Rucaparib	OCI-C5x (clear cell)	3	42	active
GAD1	Rucaparib	OCI-P5x (serous)	1	60.9	active
GAD1	Rucaparib	OCI-P5x (serous)	2	56.6	active
GAD1	Rucaparib	OCI-P5x (serous)	3	59.9	active
GAD1	Vehicle	OCI-C5x (clear cell)	1	30.1	active
GAD1	Vehicle	OCI-C5x (clear cell)	2	46.9	active
GAD1	Vehicle	OCI-C5x (clear cell)	3	42.6	active
GAD1	Vehicle	OCI-P5x (serous)	1	55.7	active
GAD1	Vehicle	OCI-P5x (serous)	2	67.3	active
GAD1	Vehicle	OCI-P5x (serous)	3	71	active
SMC4	Rucaparib	OCI-C5x (clear cell)	1	47.1	active
SMC4	Rucaparib	OCI-C5x (clear cell)	2	40.4	active
SMC4	Rucaparib	OCI-C5x (clear cell)	3	45.6	active
SMC4	Rucaparib	OCI-P5x (serous)	1	56.6	active
SMC4	Rucaparib	OCI-P5x (serous)	2	62.5	active
SMC4	Rucaparib	OCI-P5x (serous)	3	64.9	active
SMC4	Vehicle	OCI-C5x (clear cell)	1	38.3	active
SMC4	Vehicle	OCI-C5x (clear cell)	2	39.1	active
SMC4	Vehicle	OCI-C5x (clear cell)	3	35.2	active
SMC4	Vehicle	OCI-P5x (serous)	1	61.8	active
SMC4	Vehicle	OCI-P5x (serous)	2	58.4	active
SMC4	Vehicle	OCI-P5x (serous)	3	69.5	active
DNMT1	Rucaparib	OCI-C5x (clear cell)	1	62.7	active
DNMT1	Rucaparib	OCI-C5x (clear cell)	2	64.4	active
DNMT1	Rucaparib	OCI-C5x (clear cell)	3	60.9	active
DNMT1	Rucaparib	OCI-P5x (serous)	1	80.4	inactive
DNMT1	Rucaparib	OCI-P5x (serous)	2	78.1	active
DNMT1	Rucaparib	OCI-P5x (serous)	3	70.2	active
DNMT1	Vehicle	OCI-C5x (clear cell)	1	56.9	active
DNMT1	Vehicle	OCI-C5x (clear cell)	2	69.4	active
DNMT1	Vehicle	OCI-C5x (clear cell)	3	60.2	active
DNMT1	Vehicle	OCI-P5x (serous)	1	69.7	active
DNMT1	Vehicle	OCI-P5x (serous)	2	73	active
DNMT1	Vehicle	OCI-P5x (serous)	3	78.4	active
TEAD4	Rucaparib	OCI-C5x (clear cell)	1	78.7	active
TEAD4	Rucaparib	OCI-C5x (clear cell)	2	53.1	active
TEAD4	Rucaparib	OCI-C5x (clear cell)	3	52.6	active
TEAD4	Rucaparib	OCI-P5x (serous)	1	68.6	active
TEAD4	Rucaparib	OCI-P5x (serous)	2	67	active
TEAD4	Rucaparib	OCI-P5x (serous)	3	62.3	active
TEAD4	Vehicle	OCI-C5x (clear cell)	1	62.9	active
TEAD4	Vehicle	OCI-C5x (clear cell)	2	65.4	active
TEAD4	Vehicle	OCI-C5x (clear cell)	3	72.7	active
TEAD4	Vehicle	OCI-P5x (serous)	1	83.5	inactive
TEAD4	Vehicle	OCI-P5x (serous)	2	72.3	active
TEAD4	Vehicle	OCI-P5x (serous)	3	89.2	inactive

4 of these entries in another layout.
GAD1, rucaparib or vehicle Vehicle, cell line OCI-P5x (serous), technical replicate 3
- viability, normalised (%): 71
- Outcome: active

SMC4, rucaparib or vehicle Rucaparib, cell line OCI-C5x (clear cell), technical replicate 1
- viability, normalised (%): 47.1
- Outcome: active

SMC4, rucaparib or vehicle Rucaparib, cell line OCI-C5x (clear cell), technical replicate 2
- viability, normalised (%): 40.4
- Outcome: active

SMC4, rucaparib or vehicle Rucaparib, cell line OCI-C5x (clear cell), technical replicate 3
- viability, normalised (%): 45.6
- Outcome: active
